Source: US20090306080A1, “VETERINARY FORMULATION” (priority 2006, published 2009)
At least one structure is not confirmed: it was looked up by name or label, or the drawing left a doubt.

What was measured:
[1] = Solubility of cyromazine in mixtures of liquid PEG (PEG 200 or PEG 400) and water (Examples 1 to 3); assay type: physicochemical
[2] = Solubility of cyromazine in mixtures of semi solid/solid PEG (PEG 1000 to PEG 35000) and water (Examples 4 to 7); assay type: physicochemical
[3] = assay type: physicochemical; conditions: in PEG 200

For `Nc1nc(N)nc(NC2CC2)n1` [cyromazine, 2-cyclopropyl-amino-4,6-diamino-s-triazine], the “dissolution in mixtures of PEG and water” value ([1]; 25° C., about 6% w/v or about 12% w/v cyromazine, liquid PEGs at least 40% v/v) was “readily dissolves”, the “dissolution in mixtures of PEG and water” value ([1]; PEG at about 30% v/v) was “heating is required” and the “dissolution in mixtures of PEG and water” value ([2]; about 6% w/v cyromazine, PEG at least 40% v/v (examples 4 to 7)) was “readily dissolves”. The “crystallisation in mixtures of PEG and water” value ([2]; less than 40% v/v of a solid PEG (PEG 1000 or higher)) was “crystals occur after a period of time” and the “amount of cyromazine that could be dissolved” value [3] was “up to 180 g/L”.
